# The other results are listed elsewhere or left out. Construct or isoform of the protein are uncertain.
# Target: T1, ELF2 (UniProt Q15723)
# T1 sequence: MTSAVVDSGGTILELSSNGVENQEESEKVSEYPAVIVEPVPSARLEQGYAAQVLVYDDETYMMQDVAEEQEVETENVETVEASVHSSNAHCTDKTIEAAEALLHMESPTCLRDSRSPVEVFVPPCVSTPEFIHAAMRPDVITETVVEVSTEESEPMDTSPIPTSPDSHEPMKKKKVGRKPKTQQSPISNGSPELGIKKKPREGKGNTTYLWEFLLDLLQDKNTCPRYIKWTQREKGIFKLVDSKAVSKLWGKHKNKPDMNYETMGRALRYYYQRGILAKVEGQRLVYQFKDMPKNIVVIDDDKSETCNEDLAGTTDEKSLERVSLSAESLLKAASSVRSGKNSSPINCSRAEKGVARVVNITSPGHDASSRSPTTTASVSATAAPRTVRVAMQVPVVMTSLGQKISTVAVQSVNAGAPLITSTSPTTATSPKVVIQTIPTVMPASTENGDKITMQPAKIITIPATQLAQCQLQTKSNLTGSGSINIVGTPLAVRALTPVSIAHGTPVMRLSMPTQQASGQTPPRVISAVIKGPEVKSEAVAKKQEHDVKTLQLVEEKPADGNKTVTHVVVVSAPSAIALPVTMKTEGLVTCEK
# Test: DAPPL (digital affinity profiling via proximity ligation, sequencing)
# Conditions: 10 mM Tris-HCl pH 7.5, 50 mM NaCl, 1 mM DTT, 4% glycerol, room temperature, 30 min; GST-TFs on glutathione beads, 16-mer random dsDNA library, 0.1% …; high values mean tight binding; double strand, one strand shown; scale: fold enrichment (6-mer frequency, TF over GST control)
row,Sequence,binding signal
1,AATACC,1.26
2,GTAAGC,0.897
3,TAGCGC,0.906
4,GCTCAT,1.22
5,TTGTTT,1.47
6,ATTCAC,1.23
7,ACGAAG,0.909
8,TCGATG,1.06
9,CTCAAG,1.12
10,AAAATA,1.25
11,GATATT,1.21
12,AATAAA,1.34
13,CCAATA,1.18
14,TTGGTA,1.17
15,TGATGA,1.21
16,TGTTTA,1.12
17,TTTTCT,1.29
18,AGAATC,0.953
19,TGGAAT,1.24
20,CGTCGA,0.837

row,Sequence,binding signal
1,CCAACT,1.19
2,TGAACA,1.17
3,CCGAAT,1.19
4,TTTCCG,5.33
5,CGACAA,1.13
6,GGAAAT,3.79
7,GACTTT,1.06
8,CACGCG,1.09
9,GGGTTT,1.11
10,TTTGAC,1.35
11,ACGGCT,1.03
12,AGGATT,0.907
13,TTTCCA,1.28
14,ATTCAA,1.28
15,GCTTCC,5.33
16,TTAATC,1.2
17,TCCAAG,1.06
18,TTCGTC,1.23
19,ATAAAA,1.15
20,TCACTG,1.09

# Reformatted bar-delimited: entries from further up
row | Sequence | binding signal
11 | ACGGCT | 1.03
17 | TCCAAG | 1.06
